Laboratory results as given in PMC6599304.
Results are given in words; binding and its absence hold for the method and conditions named. In cells and extracts the contact can be indirect. Some binding calls cover weakened binding; strength is not graded here. Values belong to the substance of their own block, whether it stands above or below them.

By UniProt entry, the sequences of proteins in these tests, tags left out.
UniProt Q8BPN8: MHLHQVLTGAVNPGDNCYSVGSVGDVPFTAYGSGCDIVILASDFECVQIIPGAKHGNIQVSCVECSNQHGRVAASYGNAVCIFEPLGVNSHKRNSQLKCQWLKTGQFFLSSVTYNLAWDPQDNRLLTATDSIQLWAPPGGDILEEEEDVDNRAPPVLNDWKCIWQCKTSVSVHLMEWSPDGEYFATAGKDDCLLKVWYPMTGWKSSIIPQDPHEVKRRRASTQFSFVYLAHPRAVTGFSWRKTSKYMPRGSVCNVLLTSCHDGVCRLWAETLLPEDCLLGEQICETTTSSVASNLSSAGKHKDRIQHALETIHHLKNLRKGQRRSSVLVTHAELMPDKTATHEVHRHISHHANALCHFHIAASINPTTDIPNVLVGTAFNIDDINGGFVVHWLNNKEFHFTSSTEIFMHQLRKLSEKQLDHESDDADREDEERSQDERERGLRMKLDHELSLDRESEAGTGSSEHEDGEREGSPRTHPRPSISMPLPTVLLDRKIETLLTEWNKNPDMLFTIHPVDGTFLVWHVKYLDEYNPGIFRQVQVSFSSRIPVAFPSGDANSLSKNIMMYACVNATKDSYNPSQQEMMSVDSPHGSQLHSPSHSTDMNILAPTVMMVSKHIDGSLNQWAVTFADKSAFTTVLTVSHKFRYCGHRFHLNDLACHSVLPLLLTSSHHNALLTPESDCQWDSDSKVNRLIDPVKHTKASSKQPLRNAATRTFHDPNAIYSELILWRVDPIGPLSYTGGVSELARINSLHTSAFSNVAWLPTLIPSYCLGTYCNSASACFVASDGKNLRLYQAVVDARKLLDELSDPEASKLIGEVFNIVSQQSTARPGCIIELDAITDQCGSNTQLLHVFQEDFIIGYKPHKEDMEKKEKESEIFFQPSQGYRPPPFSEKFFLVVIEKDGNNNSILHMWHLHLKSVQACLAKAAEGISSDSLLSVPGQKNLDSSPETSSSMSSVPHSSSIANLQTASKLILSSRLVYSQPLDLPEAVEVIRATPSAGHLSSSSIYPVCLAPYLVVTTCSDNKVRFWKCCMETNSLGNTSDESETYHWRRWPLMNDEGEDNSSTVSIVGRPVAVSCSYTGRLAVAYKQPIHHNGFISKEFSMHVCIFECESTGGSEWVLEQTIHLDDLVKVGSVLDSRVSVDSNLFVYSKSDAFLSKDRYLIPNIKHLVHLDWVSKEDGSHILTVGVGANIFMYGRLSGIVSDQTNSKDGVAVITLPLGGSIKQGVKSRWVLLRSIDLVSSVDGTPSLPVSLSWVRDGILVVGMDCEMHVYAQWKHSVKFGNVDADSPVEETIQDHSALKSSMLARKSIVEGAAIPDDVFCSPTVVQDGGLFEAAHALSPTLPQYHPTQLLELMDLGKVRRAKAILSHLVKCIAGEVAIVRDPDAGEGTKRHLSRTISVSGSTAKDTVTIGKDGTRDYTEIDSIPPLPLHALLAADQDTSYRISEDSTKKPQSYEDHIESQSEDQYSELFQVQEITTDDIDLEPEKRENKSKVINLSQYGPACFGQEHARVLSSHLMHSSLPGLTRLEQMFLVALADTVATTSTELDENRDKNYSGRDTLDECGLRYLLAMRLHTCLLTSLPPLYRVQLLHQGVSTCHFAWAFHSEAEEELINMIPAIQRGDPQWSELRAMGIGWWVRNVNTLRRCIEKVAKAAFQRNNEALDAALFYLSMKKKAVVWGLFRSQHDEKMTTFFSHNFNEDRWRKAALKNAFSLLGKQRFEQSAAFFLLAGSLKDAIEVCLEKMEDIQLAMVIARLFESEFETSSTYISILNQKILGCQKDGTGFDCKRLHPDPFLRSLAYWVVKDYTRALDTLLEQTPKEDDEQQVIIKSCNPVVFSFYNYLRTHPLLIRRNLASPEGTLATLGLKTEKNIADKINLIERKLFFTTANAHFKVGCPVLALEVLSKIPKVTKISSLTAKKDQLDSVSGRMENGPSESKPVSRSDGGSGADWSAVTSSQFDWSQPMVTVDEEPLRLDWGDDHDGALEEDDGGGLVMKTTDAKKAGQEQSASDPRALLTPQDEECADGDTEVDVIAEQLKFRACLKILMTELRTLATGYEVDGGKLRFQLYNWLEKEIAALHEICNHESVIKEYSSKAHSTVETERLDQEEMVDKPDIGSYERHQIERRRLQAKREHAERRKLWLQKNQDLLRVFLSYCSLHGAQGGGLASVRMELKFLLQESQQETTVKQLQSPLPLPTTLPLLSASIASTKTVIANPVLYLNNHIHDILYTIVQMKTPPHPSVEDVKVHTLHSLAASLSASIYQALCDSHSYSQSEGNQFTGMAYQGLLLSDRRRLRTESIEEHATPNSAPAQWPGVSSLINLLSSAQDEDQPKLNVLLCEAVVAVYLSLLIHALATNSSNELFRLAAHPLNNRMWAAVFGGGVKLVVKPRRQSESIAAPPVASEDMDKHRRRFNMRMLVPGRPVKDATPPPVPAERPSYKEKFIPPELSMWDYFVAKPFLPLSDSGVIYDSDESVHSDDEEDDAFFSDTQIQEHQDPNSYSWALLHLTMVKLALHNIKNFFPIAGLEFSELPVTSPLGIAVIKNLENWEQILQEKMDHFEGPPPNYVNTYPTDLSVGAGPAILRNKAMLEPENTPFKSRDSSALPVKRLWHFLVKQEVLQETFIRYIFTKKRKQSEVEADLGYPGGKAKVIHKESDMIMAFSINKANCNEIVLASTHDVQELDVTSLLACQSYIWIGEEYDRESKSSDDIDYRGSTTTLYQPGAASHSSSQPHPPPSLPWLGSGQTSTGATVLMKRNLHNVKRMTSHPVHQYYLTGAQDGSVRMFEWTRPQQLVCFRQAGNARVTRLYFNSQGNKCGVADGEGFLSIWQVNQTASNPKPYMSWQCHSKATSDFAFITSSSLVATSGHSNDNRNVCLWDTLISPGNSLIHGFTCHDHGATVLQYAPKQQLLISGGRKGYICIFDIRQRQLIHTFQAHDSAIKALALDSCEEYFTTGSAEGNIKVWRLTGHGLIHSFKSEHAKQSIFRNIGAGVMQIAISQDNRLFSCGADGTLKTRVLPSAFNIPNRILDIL
UniProt Q920I9: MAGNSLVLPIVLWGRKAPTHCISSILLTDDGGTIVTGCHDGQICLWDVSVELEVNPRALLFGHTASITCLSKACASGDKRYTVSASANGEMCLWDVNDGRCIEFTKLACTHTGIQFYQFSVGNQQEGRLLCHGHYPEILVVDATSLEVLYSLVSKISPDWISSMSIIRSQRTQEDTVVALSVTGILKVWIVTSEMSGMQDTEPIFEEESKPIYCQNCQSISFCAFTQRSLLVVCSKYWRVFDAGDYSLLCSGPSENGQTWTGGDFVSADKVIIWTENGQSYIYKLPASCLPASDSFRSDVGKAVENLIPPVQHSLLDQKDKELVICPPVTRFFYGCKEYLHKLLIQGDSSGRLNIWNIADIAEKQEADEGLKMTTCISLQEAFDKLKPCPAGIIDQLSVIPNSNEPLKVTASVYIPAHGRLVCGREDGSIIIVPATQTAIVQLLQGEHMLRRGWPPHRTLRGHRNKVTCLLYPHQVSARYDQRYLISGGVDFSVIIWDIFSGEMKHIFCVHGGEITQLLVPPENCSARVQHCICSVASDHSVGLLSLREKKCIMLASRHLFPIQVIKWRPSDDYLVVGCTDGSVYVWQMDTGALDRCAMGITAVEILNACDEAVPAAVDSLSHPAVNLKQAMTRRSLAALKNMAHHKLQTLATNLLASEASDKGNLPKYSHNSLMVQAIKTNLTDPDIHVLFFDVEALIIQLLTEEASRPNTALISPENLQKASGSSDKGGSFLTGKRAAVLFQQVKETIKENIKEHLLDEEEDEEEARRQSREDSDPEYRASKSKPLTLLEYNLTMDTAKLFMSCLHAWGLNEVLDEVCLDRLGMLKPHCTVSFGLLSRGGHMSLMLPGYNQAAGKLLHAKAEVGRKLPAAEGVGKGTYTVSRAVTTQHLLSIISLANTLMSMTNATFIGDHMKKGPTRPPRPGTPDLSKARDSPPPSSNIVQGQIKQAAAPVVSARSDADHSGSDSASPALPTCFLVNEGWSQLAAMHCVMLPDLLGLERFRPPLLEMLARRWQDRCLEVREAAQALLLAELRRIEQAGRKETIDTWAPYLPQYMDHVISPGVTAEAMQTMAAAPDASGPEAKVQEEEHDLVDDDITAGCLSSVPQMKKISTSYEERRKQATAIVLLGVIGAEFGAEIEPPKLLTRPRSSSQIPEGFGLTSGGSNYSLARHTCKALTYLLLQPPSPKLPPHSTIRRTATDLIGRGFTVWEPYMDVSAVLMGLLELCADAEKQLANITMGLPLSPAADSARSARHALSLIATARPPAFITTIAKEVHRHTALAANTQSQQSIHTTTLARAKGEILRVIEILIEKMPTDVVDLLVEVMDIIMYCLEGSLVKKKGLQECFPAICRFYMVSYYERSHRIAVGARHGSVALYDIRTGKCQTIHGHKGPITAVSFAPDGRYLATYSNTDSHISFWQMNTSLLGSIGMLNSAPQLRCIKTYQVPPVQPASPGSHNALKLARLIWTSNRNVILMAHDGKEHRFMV
UniProt Q9Y4E6: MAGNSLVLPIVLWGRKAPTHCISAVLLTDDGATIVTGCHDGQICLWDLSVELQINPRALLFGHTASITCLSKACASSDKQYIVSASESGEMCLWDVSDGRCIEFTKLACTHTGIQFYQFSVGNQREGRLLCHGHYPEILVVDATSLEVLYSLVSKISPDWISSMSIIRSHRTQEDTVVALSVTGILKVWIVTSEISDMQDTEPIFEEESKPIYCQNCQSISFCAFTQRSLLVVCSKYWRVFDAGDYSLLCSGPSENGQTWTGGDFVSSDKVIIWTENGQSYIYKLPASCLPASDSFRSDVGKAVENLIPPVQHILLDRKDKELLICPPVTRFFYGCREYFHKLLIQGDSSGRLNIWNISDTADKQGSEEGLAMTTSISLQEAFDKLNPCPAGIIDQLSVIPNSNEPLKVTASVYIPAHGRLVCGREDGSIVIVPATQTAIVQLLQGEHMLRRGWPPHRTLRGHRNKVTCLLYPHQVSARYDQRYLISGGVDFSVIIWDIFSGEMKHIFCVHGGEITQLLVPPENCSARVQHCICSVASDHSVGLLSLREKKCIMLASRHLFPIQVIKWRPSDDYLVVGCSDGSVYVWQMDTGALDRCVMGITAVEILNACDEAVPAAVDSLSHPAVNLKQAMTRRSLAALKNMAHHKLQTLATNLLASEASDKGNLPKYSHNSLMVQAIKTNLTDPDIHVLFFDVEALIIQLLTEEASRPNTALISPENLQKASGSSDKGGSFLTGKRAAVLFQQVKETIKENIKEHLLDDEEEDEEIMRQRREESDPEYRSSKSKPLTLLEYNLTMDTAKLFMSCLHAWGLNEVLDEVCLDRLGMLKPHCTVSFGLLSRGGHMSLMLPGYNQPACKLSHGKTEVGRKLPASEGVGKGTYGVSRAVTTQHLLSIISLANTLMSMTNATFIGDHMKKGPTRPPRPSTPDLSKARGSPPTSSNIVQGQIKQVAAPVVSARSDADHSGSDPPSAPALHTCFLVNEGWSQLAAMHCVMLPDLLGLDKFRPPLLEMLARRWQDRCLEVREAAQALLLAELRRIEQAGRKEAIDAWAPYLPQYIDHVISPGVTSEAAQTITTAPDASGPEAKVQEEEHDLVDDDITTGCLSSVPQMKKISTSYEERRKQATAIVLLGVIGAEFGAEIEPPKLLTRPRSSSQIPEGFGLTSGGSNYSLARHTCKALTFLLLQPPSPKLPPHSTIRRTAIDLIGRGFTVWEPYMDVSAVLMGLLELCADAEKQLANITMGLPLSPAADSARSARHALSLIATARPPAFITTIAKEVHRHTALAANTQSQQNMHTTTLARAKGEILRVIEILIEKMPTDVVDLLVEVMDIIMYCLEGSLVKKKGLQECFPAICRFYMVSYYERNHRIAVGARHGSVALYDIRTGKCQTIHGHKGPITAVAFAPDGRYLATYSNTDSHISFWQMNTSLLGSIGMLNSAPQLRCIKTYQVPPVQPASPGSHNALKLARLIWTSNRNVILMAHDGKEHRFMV

Experiments:
[1] = target: Cav2.1 calcium channel (endogenous, brain) (mouse (endogenous in mouse brain; the methods say rat brain)) (UniProt P97445); assay: co-IP; mouse brain homogenate (methods: rat brain proteins lysed in RIPA buffer); 1 mg of proteins with 3 ug of specific or irrelevant (isotype control) antibody; Western blot
[2] = target: Cav2.2 calcium channel (endogenous, brain) (mouse (endogenous in mouse brain; the methods say rat brain)) (UniProt O55017); assay: as above
[3] = target: Rabconnectin-3α (endogenous, brain) (mouse (endogenous in mouse brain; the methods say rat brain)) (UniProt Q8BPN8); assay: as above
[4] = target: Cav2.2 α1 subunit (rat, recombinant in tsA-201 cells) (rat) (UniProt Q02294); assay: co-IP; lysate of tsA-201 cells transfected with Cav2.2α1 and RB-3β only (1% Triton X-100 lysis buffer); precipitated with anti-Cav2.2, anti-RB-3β or irrelevant antibody; Western blot with anti-RB-3β
[5] = target: Rabconnectin-3β (endogenous, brain) (mouse (endogenous in mouse brain; the methods say rat brain)) (UniProt Q920I9); assay: co-IP; mouse brain homogenate (methods: rat brain proteins lysed in RIPA buffer); 1 mg of proteins with 3 ug of specific or irrelevant (isotype control) antibody; Western blot

binding [1]: binds
binding [2]: binds
binding [3]: binds
Substance: Rabconnectin-3β (endogenous, brain) (from UniProt Q920I9 1-1489)

binding [4]: binds
Substance: Rabconnectin-3β (human WDR7, recombinant in tsA-201 cells) (from UniProt Q9Y4E6 1-1490)

binding [3]: binds
Substance: Cav2.2 calcium channel (endogenous, brain) (from UniProt O55017 1-2327)

binding [5]: binds
Substance: Rabconnectin-3α (endogenous, brain) (from UniProt Q8BPN8 1-3032)
